This note sets out measurements from PMC7185134.

Sequences of proteins named here, by UniProt entry; tags and fusion partners are left off. Residues count along the entry.
UniProt P30405, residues 30-207: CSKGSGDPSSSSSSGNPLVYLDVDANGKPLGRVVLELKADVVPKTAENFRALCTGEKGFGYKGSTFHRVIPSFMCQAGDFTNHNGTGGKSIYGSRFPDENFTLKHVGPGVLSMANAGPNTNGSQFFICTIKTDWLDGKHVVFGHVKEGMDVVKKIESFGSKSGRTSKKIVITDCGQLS

In this assay the target is cyclophilin-D (CypD) (human (endogenous in T-HESC)) (UniProt P30405). Kind of assay: co-IP; Mito-IP: mitochondrial lysates (400 μg) of T-HESC cells after OGDR, with or without GRh3 (10 μM, 2h) pretreatment; pre-cleared, anti-CypD antibody, Western blot for p53 and ANT-1.

Results are given in words; binding and its absence hold for the method and conditions named. In cells and extracts the contact can be indirect. Some entries that bind do so weakly or less than the wild type.

B1: adenine nucleotide translocator-1 (ANT-1) (protein, UniProt P12235 1-298)
chain: MGDHAWSFLKDFLAGGVAAAVSKTAVAPIERVKLLLQVQHASKQISAEKQYKGIIDCVVRIPKEQGFLSFWRGNLANVIRYFPTQALNFAFKDKYKQLFLGGVDRHKQFWRYFAGNLASGGAAGATSLCFVYPLDFARTRLAADVGKGAAQREFHGLGDCIIKIFKSDGLRGLYQGFNVSVQGIIIYRAAYFGVYDTAKGMLPDPKNVHIFVSWMIAQSVTAVAGLVSYPFDTVRRRMMMQSGRKGADIMYTGTVDCWRKIAKDEGAKAFFKGAWSNVLRGMGGAFVLVLYDEIKKYV
Turning to B1, the binding result is on record as “binds”.
